Results from publication PMC7819943, “Rice protein-binding microarrays: a tool to detect cis-acting elements near promoter regions in rice”.
The other results are listed elsewhere or left out.

These sequences were tested against T1, OsSMF1 (Oryza sativa, UniProt Q6ZLB0 1-436) (assay: protein-binding microarray (RPBM); PBS, 2% BSA, 51.3 ng/ul salmon testes DNA, 50 uM zinc acetate, 200 nM TF, 25 C, 1 h; high values mean tight binding). Details: protein: recombinant; tags: N-terminal polyhistidine and DsRed monomer fusion (pET32a); chain copies: 2; label: CyDye5-dUTP incorporated in the synthesized complementary strand; 3' TTTTT single-stranded linker to array surface; dsDNA, one strand shown.
T1 sequence: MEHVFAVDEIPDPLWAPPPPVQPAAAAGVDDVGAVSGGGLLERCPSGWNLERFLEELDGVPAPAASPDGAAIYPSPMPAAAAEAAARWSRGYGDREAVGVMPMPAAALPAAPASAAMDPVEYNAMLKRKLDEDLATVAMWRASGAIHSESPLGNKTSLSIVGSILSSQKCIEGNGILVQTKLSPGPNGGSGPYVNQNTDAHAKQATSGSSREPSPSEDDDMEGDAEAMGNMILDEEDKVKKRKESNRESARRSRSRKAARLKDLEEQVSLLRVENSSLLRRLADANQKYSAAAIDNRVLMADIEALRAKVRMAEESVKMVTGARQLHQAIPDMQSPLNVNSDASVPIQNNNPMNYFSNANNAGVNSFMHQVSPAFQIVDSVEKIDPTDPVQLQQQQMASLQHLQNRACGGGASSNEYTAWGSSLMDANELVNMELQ
In short: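 An Axon 4000B scanner gave the binding signal as per-feature fluorescence intensity in arbitrary units. This followed washing of a custom Agilent array that had been incubated for 1 h at 25 °C with 200 nM protein in PBS, 2% BSA, salmon testes DNA and 50 µM zinc acetate. The proteins were transcription factors fused at the N-terminus to polyhistidine and DsRed, expressed in E. coli BL21-CodonPlus and purified on Ni–NTA.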
For “ATGTTTGATTTAGATTATTAAGCAGATTATTATTGCAAACCGGAGTCACCTAGTGCAG”, the binding signal was 5070 fluorescence intensity (a.u.).
In the case of “CTGGTAGTGCATATACATACTTCACACGTCTAAATCCATGCGGAGTCACCTAGTGCAG”, the binding signal is reported as 3940 fluorescence intensity (a.u.).
In the case of “GCCACAACAGTTTGGCTGATGTTTGGTTAATACGTGAGTTCGGAGTCACCTAGTGCAG”, the binding signal is reported as 32500 fluorescence intensity (a.u.).
In the case of “CCATTATTATAAAGTTTAAATTTGTATTTAAATAAATTTTCGGAGTCACCTAGTGCAG”, the binding signal is reported as 3330 fluorescence intensity (a.u.).
In the case of “ATAAATATGTACACGTCGTTGTAGTGGCTCTGTGCTCGCTCGGAGTCACCTAGTGCAG”, the binding signal is reported as 4670 fluorescence intensity (a.u.).
In the case of “CGCCCCACGCGCGCGGTCCACTCCACCATCCCTTCCTCGTCGGAGTCACCTAGTGCAG”, the binding signal is reported as 3170 fluorescence intensity (a.u.).
With “AAGGGATTTTGGGTGGATGTGACACATCCTAGTACTACGACGGAGTCACCTAGTGCAG” the binding signal was 5240 fluorescence intensity (a.u.).
With “TACGAAAGTCCAAAAGATACCTGGTTACAGCTGGGTAGATCGGAGTCACCTAGTGCAG” the binding signal was 3400 fluorescence intensity (a.u.).
For “ATTCATCTCTCTCCATTTCCAATCCATCTCATCACCGACGCGGAGTCACCTAGTGCAG”, the binding signal was 3640 fluorescence intensity (a.u.).
For “ATAGGGTGAGAAAGCACCTCGTTTTCCACGCGCACGCTTCCGGAGTCACCTAGTGCAG”, the binding signal was 3330 fluorescence intensity (a.u.).
In the case of “GAACATATCACATGCTCATATCAAAATTTATAATATTAAACGGAGTCACCTAGTGCAG”, the binding signal is reported as 35200 fluorescence intensity (a.u.).
For “ACGCCGTTCGCTCATCCCAGGTGGGACGAGTTCATCCGCCCGGAGTCACCTAGTGCAG”, the binding signal was 6840 fluorescence intensity (a.u.).
For “CGCCCGCCCGCCGGTCGCTGCGCCAGACGACCACTAAGCCCGGAGTCACCTAGTGCAG”, the binding signal was 3340 fluorescence intensity (a.u.).
With “CGGCCGGCCGTGGATGACGTCGTTGCTGCCCTTACCACTGCGGAGTCACCTAGTGCAG” the binding signal was 5340 fluorescence intensity (a.u.).
For “TAGCATTAGCATAAGGGAGGGAGGGAGGGAGGGATCATTACGGAGTCACCTAGTGCAG”, the binding signal was 3670 fluorescence intensity (a.u.).
In the case of “CTAAAATACCGTACACTGTTTCACTTGTGTTCACTCCCAACGGAGTCACCTAGTGCAG”, the binding signal is reported as 12700 fluorescence intensity (a.u.).
In the case of “ACACACCCGCGCCGTTCCTGCGCGCCTTGTTCGCGTCCATCGGAGTCACCTAGTGCAG”, the binding signal is reported as 26500 fluorescence intensity (a.u.).
In the case of “TGCTGCTGCTGCATAGGTTCTACACGGAGTGCCTTGGGATCGGAGTCACCTAGTGCAG”, the binding signal is reported as 4490 fluorescence intensity (a.u.).
For “AATGCCTAATACAGTAGTACAGTACTACAGTAATAACCTGCGGAGTCACCTAGTGCAG”, the binding signal was 3180 fluorescence intensity (a.u.).
In the case of “AAATATTAAGTTATTATATCATAGCGTGGAAGAGCTGCTACGGAGTCACCTAGTGCAG”, the binding signal is reported as 12600 fluorescence intensity (a.u.).
For “GTATATATTTAGTGTAACAAAGTGCTGTAATGACTGTCATCGGAGTCACCTAGTGCAG”, the binding signal was 3420 fluorescence intensity (a.u.).
For “GAAATTGATGTTGATGCATTGGCTGACTCAGTTGGTAATGCGGAGTCACCTAGTGCAG”, the binding signal was 12300 fluorescence intensity (a.u.).
For “ATAAATTTGGACGCATCCCAAAATTCGGCAAACATATGACCGGAGTCACCTAGTGCAG”, the binding signal was 39200 fluorescence intensity (a.u.).
With “GCAATTAATGATTTGCCACACCCTATCAATGACATGTGGGCGGAGTCACCTAGTGCAG” the binding signal was 3720 fluorescence intensity (a.u.).
For “ACTGACATCGAGGCCCCACGTGTCAGTGACCCAGTTCTTTCGGAGTCACCTAGTGCAG”, the binding signal was 13400 fluorescence intensity (a.u.).
In the case of “TGGTTCAAAATGTAAACATTAGTTAAATGGTGATCCAAAGCGGAGTCACCTAGTGCAG”, the binding signal is reported as 49900 fluorescence intensity (a.u.).
For “GACCACACCAAAACTGCAATCACCTCACTCATCCAGTCATCGGAGTCACCTAGTGCAG”, the binding signal was 5260 fluorescence intensity (a.u.).
“CGGCCAAGTGTGACCCGGCGTCACACCGATAATCGGCTGGCGGAGTCACCTAGTGCAG” was tested, and the binding signal was 3480 fluorescence intensity (a.u.).
In the case of “TCTGATCCGCTTTGCGTGGCCACTAACTCGGCCGCTACAGCGGAGTCACCTAGTGCAG”, the binding signal is reported as 3210 fluorescence intensity (a.u.).
In the case of “GGGGTGGTGCGAATTTGCCACGAGTTCACGTGATGAGTGTCGGAGTCACCTAGTGCAG”, the binding signal is reported as 4100 fluorescence intensity (a.u.).
With “TCCCATCCACCTCCATCGCCGCCGCCGCCGCGTATGCGCCCGGAGTCACCTAGTGCAG” the binding signal was 4280 fluorescence intensity (a.u.).
For “TCTTCATGGTATATATGCACGCGCCAACTCACCACCACATCGGAGTCACCTAGTGCAG”, the binding signal was 8510 fluorescence intensity (a.u.).
With “CCCATCTACCCACCCTCCGACACGTGGGCCCCACCCCGACCGGAGTCACCTAGTGCAG” the binding signal was 11000 fluorescence intensity (a.u.).
With “TCGCGTTCCATCGCCACGCCGCATGACGTCGCCCGTGTCACGGAGTCACCTAGTGCAG” the binding signal was 7720 fluorescence intensity (a.u.).
In the case of “TTCCTGCCGCAGTTGCCGACTTTGCAGTGCCCCGTGCCAACGGAGTCACCTAGTGCAG”, the binding signal is reported as 6020 fluorescence intensity (a.u.).
In the case of “TTGGGTTCTTGATATAACTGGTGGAAATGGCGAGGTAATTCGGAGTCACCTAGTGCAG”, the binding signal is reported as 3220 fluorescence intensity (a.u.).
For “CGCTTCTTCCTGAGCTGACGTAGGCTACCATGTGTGCCCTCGGAGTCACCTAGTGCAG”, the binding signal was 5860 fluorescence intensity (a.u.).
In the case of “TTGGACATGATTTTGGCCAACTAGGATTACATCATATTACCGGAGTCACCTAGTGCAG”, the binding signal is reported as 4320 fluorescence intensity (a.u.).
With “GAATCTTTTAGCTCGGATTGCGTGTCTACAAGGCTCCATTCGGAGTCACCTAGTGCAG” the binding signal was 3980 fluorescence intensity (a.u.).
With “CCGTCGTCGTCGTCGTGGCGGCGAGCAGGCTGTTGAGCTCCGGAGTCACCTAGTGCAG” the binding signal was 4780 fluorescence intensity (a.u.).
“CCAACAATTATTCATATATAAGAAGATTTCAACGTGTACTCGGAGTCACCTAGTGCAG” was tested, and the binding signal was 4210 fluorescence intensity (a.u.).
In the case of “TCAAACACTCGACACGTGGCGCGCCTCCCAGCCGTCCGATCGGAGTCACCTAGTGCAG”, the binding signal is reported as 6920 fluorescence intensity (a.u.).
